From paper PMC9965349 (Viruses, 2023)
Results are given in words; binding and its absence hold for the method and conditions named.

The chains behind the UniProt entries cited, without tags or fusion partners. Residues count along the entry.
UniProt P02769, residues 25-607: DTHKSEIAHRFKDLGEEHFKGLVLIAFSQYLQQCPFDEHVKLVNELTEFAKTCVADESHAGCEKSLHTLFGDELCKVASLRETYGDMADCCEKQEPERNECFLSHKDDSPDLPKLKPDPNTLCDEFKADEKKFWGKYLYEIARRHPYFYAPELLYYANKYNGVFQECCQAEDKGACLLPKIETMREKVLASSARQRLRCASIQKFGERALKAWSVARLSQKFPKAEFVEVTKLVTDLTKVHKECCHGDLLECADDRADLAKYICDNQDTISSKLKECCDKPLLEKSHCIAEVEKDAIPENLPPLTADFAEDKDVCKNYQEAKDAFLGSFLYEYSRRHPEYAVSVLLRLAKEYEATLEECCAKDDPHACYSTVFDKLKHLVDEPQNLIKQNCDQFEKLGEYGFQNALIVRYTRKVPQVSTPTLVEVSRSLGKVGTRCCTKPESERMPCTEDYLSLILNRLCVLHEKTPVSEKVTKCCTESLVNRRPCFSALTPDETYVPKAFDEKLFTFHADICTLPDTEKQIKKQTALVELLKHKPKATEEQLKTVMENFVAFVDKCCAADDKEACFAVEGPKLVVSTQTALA

Biological target: BSA (bovine (by the name BSA)) (UniProt P02769)
Test: ELISA; both purified

Binder	binding
WHFNRP [peptide 115042]	no binding (tested: peptide 1 μg/mL; BSA coated at 10 μg/mL)
FWKEAK [peptide 110616]	no binding (tested: peptide 1 μg/mL; BSA coated at 10 μg/mL)
